The values that follow come from publication PMC12216916.

Sequences of proteins named here, by UniProt entry; tags and fusion partners are left off.
UniProt P38936: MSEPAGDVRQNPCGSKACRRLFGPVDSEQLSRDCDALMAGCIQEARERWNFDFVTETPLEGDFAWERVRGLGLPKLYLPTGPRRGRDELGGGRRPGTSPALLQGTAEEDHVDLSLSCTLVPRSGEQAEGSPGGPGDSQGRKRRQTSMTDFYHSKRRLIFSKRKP
UniProt Q8IYM9: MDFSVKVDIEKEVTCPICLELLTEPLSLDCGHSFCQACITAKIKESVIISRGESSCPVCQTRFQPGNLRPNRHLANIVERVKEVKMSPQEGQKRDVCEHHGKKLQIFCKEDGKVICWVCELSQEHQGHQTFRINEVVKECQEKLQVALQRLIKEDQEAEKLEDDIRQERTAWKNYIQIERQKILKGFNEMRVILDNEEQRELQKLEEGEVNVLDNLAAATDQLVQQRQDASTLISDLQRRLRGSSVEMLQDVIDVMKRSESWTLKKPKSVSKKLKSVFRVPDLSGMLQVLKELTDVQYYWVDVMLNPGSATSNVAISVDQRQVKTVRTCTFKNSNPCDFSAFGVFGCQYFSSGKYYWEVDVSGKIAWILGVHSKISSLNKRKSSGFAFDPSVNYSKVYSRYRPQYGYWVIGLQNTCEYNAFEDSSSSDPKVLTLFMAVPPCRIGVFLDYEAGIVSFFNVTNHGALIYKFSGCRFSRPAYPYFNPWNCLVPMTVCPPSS

Test [1] has as its target SF-tagged (S-protein tag and Flag tag) p21 (UniProt P38936). Kind of test: pull-down; S-protein pull-down from lysate of 293T cells co-transfected with p21-SF and Myc-TRIM22; NETN buffer (20 mM Tris-Cl pH 7.4, 100 mM NaCl, 1 mM EDTA, 0.5% NP-40), S-protein agarose, 4 °C, 4 h; Western blot (the legend speaks of immunoprecipitation with anti-Myc and anti-Flag antibodies). On the technique in general: In western blotting, separated proteins are transferred to a membrane and probed.

For test [2], the target named is SF-tagged full-length TRIM22 (UniProt Q8IYM9). The test is described as follows: pull-down; S-protein pull-down from lysate of 293T cells transiently expressing SF-tagged TRIM22; endogenous p21 detected by Western blot; NETN buffer, S-protein agarose, 4 °C, 4 h (the legend speaks of immunoprecipitation with anti-p21 and anti-Flag antibodies).

Results are given in words; binding and its absence hold for the method and conditions named. Binding seen in cells or lysates may run through a third protein. Some results given as binding are weak or reduced against the parent protein; the word gives no strength.

Regarding “Myc-tagged TRIM22 (tripartite motif-containing 22) (from UniProt Q8IYM9 1-498)”, the binding entry in test [1] is given as “binds”.
“endogenous p21 (from UniProt P38936 1-164)”: in test [2], the binding result is “binds”.
